This is one part of the list. Only hits are listed; about a third recur on repeated control peptides.

Chains of the proteins cited; added tags and fusions are not shown.
CD2AP, Q9Y5K6, UniProt Q9Y5K6, whole entry: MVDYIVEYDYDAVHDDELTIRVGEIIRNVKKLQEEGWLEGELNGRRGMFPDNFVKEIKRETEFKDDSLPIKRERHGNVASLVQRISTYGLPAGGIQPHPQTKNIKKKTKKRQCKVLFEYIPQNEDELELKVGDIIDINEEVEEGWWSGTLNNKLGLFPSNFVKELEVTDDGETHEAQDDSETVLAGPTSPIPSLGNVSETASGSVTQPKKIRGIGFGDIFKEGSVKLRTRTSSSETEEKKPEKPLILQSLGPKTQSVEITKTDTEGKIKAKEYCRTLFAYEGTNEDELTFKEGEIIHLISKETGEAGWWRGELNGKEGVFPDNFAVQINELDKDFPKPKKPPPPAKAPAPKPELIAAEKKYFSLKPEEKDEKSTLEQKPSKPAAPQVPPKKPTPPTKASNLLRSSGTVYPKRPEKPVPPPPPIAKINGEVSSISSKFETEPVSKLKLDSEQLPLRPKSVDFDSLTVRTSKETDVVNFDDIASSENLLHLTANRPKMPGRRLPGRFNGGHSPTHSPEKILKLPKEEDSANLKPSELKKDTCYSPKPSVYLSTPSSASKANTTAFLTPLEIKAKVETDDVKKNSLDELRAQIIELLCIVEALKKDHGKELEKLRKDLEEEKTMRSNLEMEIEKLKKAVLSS
DNAJC13, O75165, UniProt O75165, whole entry: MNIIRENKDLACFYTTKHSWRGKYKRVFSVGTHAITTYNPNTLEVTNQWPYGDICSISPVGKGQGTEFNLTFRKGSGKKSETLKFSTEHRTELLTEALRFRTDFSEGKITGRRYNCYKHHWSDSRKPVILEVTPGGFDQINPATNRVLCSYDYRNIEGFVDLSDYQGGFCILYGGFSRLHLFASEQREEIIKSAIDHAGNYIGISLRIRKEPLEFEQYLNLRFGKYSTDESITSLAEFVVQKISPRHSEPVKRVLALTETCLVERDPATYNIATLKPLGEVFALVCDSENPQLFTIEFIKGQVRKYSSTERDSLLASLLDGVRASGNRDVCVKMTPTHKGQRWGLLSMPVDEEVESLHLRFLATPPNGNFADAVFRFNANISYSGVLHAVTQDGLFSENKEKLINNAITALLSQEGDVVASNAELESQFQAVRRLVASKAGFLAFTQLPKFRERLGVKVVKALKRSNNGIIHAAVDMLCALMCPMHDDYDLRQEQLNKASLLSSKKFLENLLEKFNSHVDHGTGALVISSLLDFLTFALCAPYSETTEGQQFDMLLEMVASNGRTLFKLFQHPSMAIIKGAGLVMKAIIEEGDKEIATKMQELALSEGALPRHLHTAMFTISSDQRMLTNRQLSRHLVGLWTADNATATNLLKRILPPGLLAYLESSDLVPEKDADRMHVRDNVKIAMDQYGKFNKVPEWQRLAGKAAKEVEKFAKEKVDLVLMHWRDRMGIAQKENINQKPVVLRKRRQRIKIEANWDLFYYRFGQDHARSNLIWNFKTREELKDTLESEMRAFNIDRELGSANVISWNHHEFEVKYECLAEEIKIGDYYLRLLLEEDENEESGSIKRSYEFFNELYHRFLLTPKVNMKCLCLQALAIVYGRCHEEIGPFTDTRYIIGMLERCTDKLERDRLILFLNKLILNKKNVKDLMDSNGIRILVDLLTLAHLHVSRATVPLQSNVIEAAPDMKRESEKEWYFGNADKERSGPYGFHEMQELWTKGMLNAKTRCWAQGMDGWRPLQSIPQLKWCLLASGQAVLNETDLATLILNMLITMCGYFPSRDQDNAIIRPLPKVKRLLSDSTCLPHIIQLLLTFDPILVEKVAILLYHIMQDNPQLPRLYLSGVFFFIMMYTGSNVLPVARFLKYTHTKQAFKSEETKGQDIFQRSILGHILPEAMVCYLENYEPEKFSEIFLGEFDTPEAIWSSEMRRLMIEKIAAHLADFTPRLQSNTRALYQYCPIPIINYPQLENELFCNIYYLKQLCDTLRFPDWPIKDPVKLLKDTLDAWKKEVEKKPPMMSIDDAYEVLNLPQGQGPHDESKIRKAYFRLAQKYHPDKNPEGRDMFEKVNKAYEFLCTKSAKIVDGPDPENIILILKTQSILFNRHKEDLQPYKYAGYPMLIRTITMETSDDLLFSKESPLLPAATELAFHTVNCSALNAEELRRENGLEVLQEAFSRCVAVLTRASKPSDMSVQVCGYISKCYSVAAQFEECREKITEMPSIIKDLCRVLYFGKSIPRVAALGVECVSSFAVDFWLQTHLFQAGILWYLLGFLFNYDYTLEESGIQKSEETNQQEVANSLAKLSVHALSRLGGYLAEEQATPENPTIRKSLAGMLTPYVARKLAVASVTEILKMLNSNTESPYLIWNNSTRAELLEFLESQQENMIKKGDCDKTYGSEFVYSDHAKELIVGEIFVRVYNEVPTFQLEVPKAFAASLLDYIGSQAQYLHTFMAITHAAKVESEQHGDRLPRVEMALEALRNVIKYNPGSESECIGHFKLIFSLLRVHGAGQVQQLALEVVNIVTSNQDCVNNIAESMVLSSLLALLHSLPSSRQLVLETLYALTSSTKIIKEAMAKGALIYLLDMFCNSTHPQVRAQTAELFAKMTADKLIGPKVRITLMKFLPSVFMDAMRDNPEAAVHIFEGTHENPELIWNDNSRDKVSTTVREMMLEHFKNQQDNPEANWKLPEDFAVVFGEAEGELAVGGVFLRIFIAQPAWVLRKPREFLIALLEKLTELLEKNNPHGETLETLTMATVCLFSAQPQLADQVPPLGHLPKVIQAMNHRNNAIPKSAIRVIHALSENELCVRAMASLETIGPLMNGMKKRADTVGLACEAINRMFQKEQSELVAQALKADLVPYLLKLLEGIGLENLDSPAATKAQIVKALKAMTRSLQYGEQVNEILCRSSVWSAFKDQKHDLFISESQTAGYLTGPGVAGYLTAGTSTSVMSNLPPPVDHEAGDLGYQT
PFN1, P07737, UniProt P07737, whole entry: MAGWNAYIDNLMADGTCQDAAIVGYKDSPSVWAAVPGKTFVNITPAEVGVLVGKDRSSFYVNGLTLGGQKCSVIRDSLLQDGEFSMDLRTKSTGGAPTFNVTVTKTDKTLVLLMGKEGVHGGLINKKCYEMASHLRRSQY
EIF3B, P55884, UniProt P55884, whole entry: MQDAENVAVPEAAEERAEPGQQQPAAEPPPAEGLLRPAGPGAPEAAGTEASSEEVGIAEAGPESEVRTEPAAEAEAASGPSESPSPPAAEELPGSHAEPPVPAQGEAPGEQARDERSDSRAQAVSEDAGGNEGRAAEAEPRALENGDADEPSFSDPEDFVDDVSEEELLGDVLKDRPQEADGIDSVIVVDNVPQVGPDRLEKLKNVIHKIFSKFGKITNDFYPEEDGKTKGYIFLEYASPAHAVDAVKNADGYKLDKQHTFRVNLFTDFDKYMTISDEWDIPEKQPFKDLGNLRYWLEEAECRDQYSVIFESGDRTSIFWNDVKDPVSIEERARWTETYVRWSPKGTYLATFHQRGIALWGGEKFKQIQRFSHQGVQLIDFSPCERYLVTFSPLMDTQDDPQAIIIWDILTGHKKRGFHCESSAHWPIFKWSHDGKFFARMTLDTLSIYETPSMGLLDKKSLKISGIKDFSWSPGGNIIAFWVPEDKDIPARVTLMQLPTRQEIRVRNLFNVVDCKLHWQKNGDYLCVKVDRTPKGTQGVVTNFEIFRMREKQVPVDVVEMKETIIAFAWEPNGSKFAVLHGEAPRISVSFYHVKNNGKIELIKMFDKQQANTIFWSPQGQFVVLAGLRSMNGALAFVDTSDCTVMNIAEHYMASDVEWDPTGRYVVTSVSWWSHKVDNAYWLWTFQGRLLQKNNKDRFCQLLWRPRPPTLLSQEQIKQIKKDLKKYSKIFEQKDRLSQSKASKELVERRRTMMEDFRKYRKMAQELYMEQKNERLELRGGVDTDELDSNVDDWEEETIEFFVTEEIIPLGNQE
EIF3J, O75822, UniProt O75822, whole entry: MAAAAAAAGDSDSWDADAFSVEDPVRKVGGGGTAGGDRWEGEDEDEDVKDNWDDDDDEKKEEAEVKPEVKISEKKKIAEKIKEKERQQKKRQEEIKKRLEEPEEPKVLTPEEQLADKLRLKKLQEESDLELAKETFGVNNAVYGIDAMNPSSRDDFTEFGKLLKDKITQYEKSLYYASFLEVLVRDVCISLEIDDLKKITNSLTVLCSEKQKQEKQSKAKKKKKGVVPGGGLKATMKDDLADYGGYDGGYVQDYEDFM
KPNA3, O00505, UniProt O00505, whole entry: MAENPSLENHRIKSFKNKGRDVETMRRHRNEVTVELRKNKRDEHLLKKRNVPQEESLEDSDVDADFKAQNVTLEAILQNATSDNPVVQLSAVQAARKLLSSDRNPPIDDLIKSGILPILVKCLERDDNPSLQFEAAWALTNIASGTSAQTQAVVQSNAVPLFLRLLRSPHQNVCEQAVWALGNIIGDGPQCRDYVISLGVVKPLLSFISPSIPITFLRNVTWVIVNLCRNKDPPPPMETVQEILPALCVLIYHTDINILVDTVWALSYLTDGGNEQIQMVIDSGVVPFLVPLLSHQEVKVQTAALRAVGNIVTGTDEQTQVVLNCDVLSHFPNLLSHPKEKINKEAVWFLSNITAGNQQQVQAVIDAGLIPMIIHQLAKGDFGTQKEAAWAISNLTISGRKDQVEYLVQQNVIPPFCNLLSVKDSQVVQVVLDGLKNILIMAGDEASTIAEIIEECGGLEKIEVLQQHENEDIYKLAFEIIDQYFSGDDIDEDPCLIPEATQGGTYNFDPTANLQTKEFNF
PFDN6, O15212, UniProt O15212, whole entry: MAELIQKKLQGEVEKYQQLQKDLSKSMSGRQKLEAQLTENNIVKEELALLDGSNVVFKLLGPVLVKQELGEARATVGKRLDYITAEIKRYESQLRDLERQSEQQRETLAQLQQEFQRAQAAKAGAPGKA
RANBP1, P43487, UniProt P43487, whole entry: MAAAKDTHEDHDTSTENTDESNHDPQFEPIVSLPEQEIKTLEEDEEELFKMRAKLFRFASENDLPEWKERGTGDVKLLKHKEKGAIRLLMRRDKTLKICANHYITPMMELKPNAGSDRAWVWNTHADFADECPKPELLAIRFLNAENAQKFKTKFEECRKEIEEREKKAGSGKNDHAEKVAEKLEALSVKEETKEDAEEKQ

Experiment in all cases: PRISMA enrichment of interactor (LFQ) in peptide spot vs all other peptide spots (log2 fold change); higher = stronger / more specific binding of the interactor to the peptide
The target in one test is AIMP2, Q13155. Here is the method: (§1)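 PRISMA: 15-aa overlapping tiles (offset 8 aa) of 60 microproteins, plus SOS1/GLUT1 control peptides, were spot-synthesized on cellulose membranes in triplicate. Membranes were incubated with benzonase-treated HEK293T lysate, and bound proteins were identified by LC-MS/MS with LFQ. Enrichment is the log2 fold change of each protein in one spot versus all other spots. Only interactors passing the significance cutoff are listed.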

For the next test, the target named is C19orf53, Q9UNZ5. Here is the method: as §1
Another test addresses CD2AP, Q9Y5K6. Here is the method: as §1
Substrate in test [1]: CNBP, P62633
Here is the method:
as §1

The target in another test is COPS2, P61201. Here is the method: as §1
A further test addresses DARS2, Q6PI48. Here is the method:
as §1

The next test addresses DCUN1D5, Q9BTE7. Here is the method:
as §1

For another test, the target named is DDX28, Q9NUL7. Here is the method:
as §1

Another test deals with DNAJA2, O60884. Here is the method: as §1
Another test has as its target DNAJC13, O75165. Here is the method:
as §1

The next test concerns the target FLYWCH2, Q96CP2. Here is the method: as §1
A further test addresses GPAT4, Q86UL3. Here is the method:
as §1

The next test addresses HTATSF1, O43719. Here is the method:
as §1

A further test deals with IVD, P26440. Here is the method: as §1
The next test addresses IWS1, Q96ST2. Here is the method:
as §1

The next test has as its target MARK2, Q7KZI7. Here is the method:
as §1

The target in a further test is MRPL24, Q96A35. Here is the method:
as §1

A further test has as its target MRPS15, P82914. Here is the method:
as §1

Another test has as its target MRPS23, Q9Y3D9. Here is the method: as §1
In a further test the target is NAT10, Q9H0A0. Here is the method: as §1
Another test deals with NOC4L, Q9BVI4. Here is the method:
as §1

Another test concerns the target NUP37, Q8NFH4. Here is the method:
as §1

For a further test, the target named is NUP85, Q9BW27. Here is the method:
as §1

A further test deals with PFN1, P07737. Here is the method:
as §1

Another test has as its target PJA2, O43164. Here is the method:
as §1

For another test, the target named is POLD2, P49005. Here is the method: as §1
Substrate in test [2]: PPIF, P30405
Here is the method:
as §1

Another test concerns the target PRRC2B, Q5JSZ5. Here is the method: as §1
A further test deals with RBM12B, Q8IXT5. Here is the method: as §1
Another test concerns the target RNF5, Q99942. Here is the method:
as §1

In the next test the target is AHCY, P23526. Here is the method: as §1
In another test the target is C19orf47, Q8N9M1. Here is the method: as §1
A further test concerns the target DHX36, Q9H2U1. Here is the method: as §1
The next test concerns the target EIF3B, P55884. Here is the method: as §1
A further test deals with EIF3J, O75822. Here is the method: as §1
The next test deals with IDH3A, P50213. Here is the method: as §1
The next test addresses KPNA3, O00505. Here is the method:
as §1

A further test deals with LRRC40, Q9H9A6. Here is the method: as §1
A further test addresses MRPL23, Q16540. Here is the method:
as §1

The target of the next test is MRPS5, P82675. Here is the method:
as §1

For the next test, the target named is MRPS7, Q9Y2R9. Here is the method:
as §1

The next test concerns the target PFDN6, O15212. Here is the method:
as §1

Another test addresses POLR2G, P62487. Here is the method:
as §1

A further test has as its target RANBP1, P43487. Here is the method: as §1
A further test addresses SHQ1, Q6PI26. Here is the method: as §1
Another test has as its target TOP2B, Q02880. Here is the method: as §1

Take IHSGGDLTCHCEQLL [LINC01128]: the “PRISMA enrichment of interactor (log2)” value was found to be 5.23 in the test with AIMP2, Q13155; 5.89 with C19orf53, Q9UNZ5; 4.79 in the test with CD2AP, Q9Y5K6; 5.76 in [1]; 5.05 with COPS2, P61201; 4.69 with DARS2, Q6PI48. For the same molecule, the “PRISMA enrichment of interactor (log2)” value with DCUN1D5, Q9BTE7 was 5.78; with DDX28, Q9NUL7, 5.63; with DNAJA2, O60884 it was 6.78; with DNAJC13, O75165, 4.19; in the test with FLYWCH2, Q96CP2 it was 4.13; with GPAT4, Q86UL3, 4.05. The “PRISMA enrichment of interactor (log2)” value was found to be 6.24 in the test with HTATSF1, O43719; 5.33 with IVD, P26440; 6.82 with IWS1, Q96ST2; 4.24 in the test with MARK2, Q7KZI7; 5.17 with MRPL24, Q96A35; 8.59 with MRPS15, P82914. In addition, the “PRISMA enrichment of interactor (log2)” value was 6.76 in the test with MRPS23, Q9Y3D9; 4.74 with NAT10, Q9H0A0; 4.42 with NOC4L, Q9BVI4; 3.9 with NUP37, Q8NFH4; 6.37 with NUP85, Q9BW27; 5.05 with PFN1, P07737. Also, the “PRISMA enrichment of interactor (log2)” value in the test with PJA2, O43164 was 4.49; in the test with POLD2, P49005, 7.13; in test [2], 4.73; with PRRC2B, Q5JSZ5, 6.58; with RBM12B, Q8IXT5 it was 4.13; with RNF5, Q99942, 4.22.

RLFGQQQRATAAPLR [RNF10]: the “PRISMA enrichment of interactor (log2)” value in the test with AHCY, P23526 came out at 6.29; in the test with C19orf47, Q8N9M1, 4.43; with DHX36, Q9H2U1, 5.98; with EIF3B, P55884 it was 5.38; with EIF3J, O75822 it was 5.66; with IDH3A, P50213, 9.42. The “PRISMA enrichment of interactor (log2)” value in the test with KPNA3, O00505 was found to be 5.46; with LRRC40, Q9H9A6, 6.13; with MRPL23, Q16540, 5.42; with MRPS5, P82675 it was 6.59; with MRPS7, Q9Y2R9 it was 6.96; with PFDN6, O15212, 6.28. The “PRISMA enrichment of interactor (log2)” value in the test with POLR2G, P62487 came to 4.16; with RANBP1, P43487, 6; with SHQ1, Q6PI26, 4.37; with TOP2B, Q02880, 8.18.
